# Data from the supplement of paper PMC8728848.
# This is one part of the list.
# Key:
# Test in all cases: glycan array binding signal (z-score within array); higher = stronger binding
# Conditions in all cases: glycan notation: IUPAC condensed, linker removed
# Gal(a1-2)Gal = tested on: Gal(a1-2)Gal
# Method in brief: (§1)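 The binding signal is a Z-score computed within each array and averaged over linkers. Arrays of the same protein sequence at different concentrations or buffers were also averaged together. Data originate from 3228 arrays in the Consortium for Functional Glycomics database, kept only where the protein sequence was available.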
# [1] = tested on: Gal(a1-3)Gal(b1-3)GlcNAc(b1-2)Man(a1-3)[Gal(a1-3)Gal(b1-3)GlcNAc(b1-2)Man(a1-6)]Man(b1-4)GlcNAc(b1-4)GlcNAc
# Method in brief: as §1
# [2] = tested on: Gal(a1-3)Gal(b1-3)GlcNAc(b1-3)GalNAc
# Method in brief: as §1
# [3] = tested on: Gal(a1-3)Gal(b1-3)GlcNAc(b1-6)GalNAc
# Method in brief: as §1
# Gal(a1-3)Gal(b1-3)GlcNAc = tested on: Gal(a1-3)Gal(b1-3)GlcNAc
# Method in brief: as §1
# [4] = tested on: Gal(a1-3)Gal(b1-3)[Fuc(a1-4)]GlcNAc(b1-2)Man(a1-3)[Gal(a1-3)Gal(b1-3)[Fuc(a1-4)]GlcNAc(b1-2)Man(a1-6)]Man(b1-4)GlcNAc(b1-4)GlcNAc
# Method in brief: as §1
# [5] = tested on: Gal(a1-3)Gal(b1-4)GlcNAc(b1-3)GalNAc
# Method in brief: as §1
# [6] = tested on: Gal(a1-3)Gal(b1-4)GlcNAc(b1-6)GalNAc
# Method in brief: as §1
# Gal(a1-3)Gal(b1-4)GlcNAc = tested on: Gal(a1-3)Gal(b1-4)GlcNAc
# Method in brief: as §1
# Gal(a1-3)Gal(b1-4)Glc = tested on: Gal(a1-3)Gal(b1-4)Glc
# Method in brief: as §1
# [7] = tested on: Gal(a1-3)Gal(b1-4)[Fuc(a1-3)]GlcNAc(b1-2)Man(a1-3)[Gal(a1-3)Gal(b1-4)[Fuc(a1-3)]GlcNAc(b1-2)Man(a1-6)]Man(b1-4)GlcNAc(b1-4)GlcNAc
# Method in brief: as §1
# [8] = tested on: Gal(a1-3)Gal(b1-4)[Fuc(a1-3)]GlcNAc
# Method in brief: as §1
# Gal(a1-3)GalNAc = tested on: Gal(a1-3)GalNAc
# Method in brief: as §1
# Gal(a1-3)Gal = tested on: Gal(a1-3)Gal
# Method in brief: as §1
# [9] = tested on: Gal(a1-3)[Gal(a1-4)]Gal(b1-4)GlcNAc
# Method in brief: as §1
# [10] = tested on: Gal(a1-4)Gal(b1-3)GlcNAc(b1-2)Man(a1-3)[Gal(a1-4)Gal(b1-3)GlcNAc(b1-2)Man(a1-6)]Man(b1-4)GlcNAc(b1-4)GlcNAc
# Method in brief: as §1
# [11] = tested on: Gal(a1-4)Gal(b1-4)GlcNAc(b1-2)Man(a1-3)[Gal(a1-4)Gal(b1-4)GlcNAc(b1-2)Man(a1-6)]Man(b1-4)GlcNAc(b1-4)GlcNAc
# Method in brief: as §1
# [12] = tested on: Gal(a1-4)Gal(b1-4)GlcNAc(b1-3)Gal(b1-4)Glc
# Method in brief: as §1
# Gal(a1-4)Gal(b1-4)GlcNAc = tested on: Gal(a1-4)Gal(b1-4)GlcNAc
# Method in brief: as §1
# Gal(a1-4)Gal(b1-4)Glc = tested on: Gal(a1-4)Gal(b1-4)Glc
# Method in brief: as §1
# Gal(a1-4)GlcNAc = tested on: Gal(a1-4)GlcNAc
# Method in brief: as §1
# Gal(a1-6)Glc = tested on: Gal(a1-6)Glc
# Method in brief: as §1
# Gal(b1-2)Gal = tested on: Gal(b1-2)Gal
# Method in brief: as §1
# [13] = tested on: Gal(b1-3)Gal(b1-4)GlcNAc(b1-2)Man(a1-3)[Gal(b1-3)Gal(b1-4)GlcNAc(b1-2)Man(a1-6)]Man(b1-4)GlcNAc(b1-4)GlcNAc
# Method in brief: as §1
# Gal(b1-3)Gal(b1-4)GlcNAc = tested on: Gal(b1-3)Gal(b1-4)GlcNAc
# Method in brief: as §1
# [14] = tested on: Gal(b1-3)GalNAc(a1-3)[Fuc(a1-2)]Gal(b1-4)GlcNAc
# Method in brief: as §1
# [15] = tested on: Gal(b1-3)GalNAc(a1-3)[Fuc(a1-2)]Gal(b1-4)Glc
# Method in brief: as §1
# [16] = tested on: Gal(b1-3)GalNAc(b1-3)Gal(a1-4)Gal(b1-4)Glc
# Method in brief: as §1
# [17] = tested on: Gal(b1-3)GalNAc(b1-4)Gal(b1-4)Glc
# Method in brief: as §1
# [18] = tested on: Gal(b1-3)GalNAc(b1-4)[Neu5Ac(a2-3)]Gal(b1-4)Glc
# Method in brief: as §1
# Gal(b1-3)GalNAc = tested on: Gal(b1-3)GalNAc
# Method in brief: as §1
# Gal(b1-3)Gal = tested on: Gal(b1-3)Gal
# Method in brief: as §1
# [19] = tested on: Gal(b1-3)GlcNAc(a1-3)Gal(b1-4)GlcNAc
# Method in brief: as §1
# [20] = tested on: Gal(b1-3)GlcNAc(a1-6)Gal(b1-4)GlcNAc
# Method in brief: as §1
# [21] = tested on: Gal(b1-3)GlcNAc(b1-2)Man(a1-3)[Gal(b1-3)GlcNAc(b1-2)Man(a1-6)]Man(b1-4)GlcNAc(b1-4)GlcNAc
# Method in brief: as §1
# [22] = tested on: Gal(b1-3)GlcNAc(b1-2)Man(a1-3)[Gal(b1-3)GlcNAc(b1-2)Man(a1-6)]Man(b1-4)GlcNAc(b1-4)[Fuc(a1-6)]GlcNAc
# Method in brief: as §1
# [23] = tested on: Gal(b1-3)GlcNAc(b1-2)Man(a1-3)[GlcNAc(b1-4)][Gal(b1-3)GlcNAc(b1-2)Man(a1-6)]Man(b1-4)GlcNAc(b1-4)GlcNAc
# Method in brief: as §1
# [24] = tested on: Gal(b1-3)GlcNAc(b1-2)[Gal(b1-3)GlcNAc(b1-6)]Man(a1-6)[Gal(b1-3)GlcNAc(b1-2)Man(a1-3)]Man(b1-4)GlcNAc(b1-4)GlcNAc
# Method in brief: as §1
# [25] = tested on: Gal(b1-3)GlcNAc(b1-3)Gal(b1-3)GlcNAc
# Method in brief: as §1
# [26] = tested on: Gal(b1-3)GlcNAc(b1-3)Gal(b1-4)GlcNAc(b1-6)[Gal(b1-3)GlcNAc(b1-3)]Gal(b1-4)Glc
# Method in brief: as §1
# [27] = tested on: Gal(b1-3)GlcNAc(b1-3)Gal(b1-4)GlcNAc
# Method in brief: as §1
# [28] = tested on: Gal(b1-3)GlcNAc(b1-3)Gal(b1-4)Glc
# Method in brief: as §1
# [29] = tested on: Gal(b1-3)GlcNAc(b1-3)Gal(b1-4)[Fuc(a1-3)]GlcNAc(b1-6)[Gal(b1-3)GlcNAc(b1-3)]Gal(b1-4)Glc
# Method in brief: as §1
# [30] = tested on: Gal(b1-3)GlcNAc(b1-3)GalNAc
# Method in brief: as §1
# [31] = tested on: Gal(b1-3)GlcNAc(b1-6)Gal(b1-4)GlcNAc
# Method in brief: as §1
# [32] = tested on: Gal(b1-3)GlcNAc(b1-6)GalNAc
# Method in brief: as §1
# Gal(b1-3)GlcNAc6S = tested on: Gal(b1-3)GlcNAc6S
# Method in brief: as §1
# Gal(b1-3)GlcNAc = tested on: Gal(b1-3)GlcNAc
# Method in brief: as §1
# [33] = tested on: Gal(b1-3)[Fuc(a1-4)]GlcNAc(b1-2)Man(a1-3)[Gal(b1-3)[Fuc(a1-4)]GlcNAc(b1-2)Man(a1-6)]Man(b1-4)GlcNAc(b1-4)[Fuc(a1-6)]GlcNAc
# Method in brief: as §1
# [34] = tested on: Gal(b1-3)[Fuc(a1-4)]GlcNAc(b1-3)Gal(b1-3)[Fuc(a1-4)]GlcNAc
# Method in brief: as §1
# [35] = tested on: Gal(b1-3)[Fuc(a1-4)]GlcNAc(b1-3)Gal(b1-4)GlcNAc
# Method in brief: as §1
# [36] = tested on: Gal(b1-3)[Fuc(a1-4)]GlcNAc(b1-3)Gal(b1-4)[Fuc(a1-3)]GlcNAc
# Method in brief: as §1
substance,measurement,setting,value
"Wza (Escherichia coli), P0A930",glycan array binding signal (z-score),Gal(a1-2)Gal,0.653
same,glycan array binding signal (z-score),[1],0.652
same,glycan array binding signal (z-score),[2],1.33
same,glycan array binding signal (z-score),[3],-0.619
same,glycan array binding signal (z-score),Gal(a1-3)Gal(b1-3)GlcNAc,-0.725
same,glycan array binding signal (z-score),[4],0.562
same,glycan array binding signal (z-score),[5],-0.853
same,glycan array binding signal (z-score),[6],3.84
same,glycan array binding signal (z-score),Gal(a1-3)Gal(b1-4)GlcNAc,-0.445
same,glycan array binding signal (z-score),Gal(a1-3)Gal(b1-4)Glc,0.4
same,glycan array binding signal (z-score),[7],-0.24
same,glycan array binding signal (z-score),[8],0.137
same,glycan array binding signal (z-score),Gal(a1-3)GalNAc,0.468
same,glycan array binding signal (z-score),Gal(a1-3)Gal,0.115
same,glycan array binding signal (z-score),[9],-0.948
same,glycan array binding signal (z-score),[10],-1.07
same,glycan array binding signal (z-score),[11],0.557
same,glycan array binding signal (z-score),[12],-0.087
same,glycan array binding signal (z-score),Gal(a1-4)Gal(b1-4)GlcNAc,-0.729
same,glycan array binding signal (z-score),Gal(a1-4)Gal(b1-4)Glc,0.25
same,glycan array binding signal (z-score),Gal(a1-4)GlcNAc,-1.48
same,glycan array binding signal (z-score),Gal(a1-6)Glc,3.12
same,glycan array binding signal (z-score),Gal(b1-2)Gal,-1.24
same,glycan array binding signal (z-score),[13],1.54
same,glycan array binding signal (z-score),Gal(b1-3)Gal(b1-4)GlcNAc,3.02
same,glycan array binding signal (z-score),[14],0.052
same,glycan array binding signal (z-score),[15],0.824
same,glycan array binding signal (z-score),[16],-0.128
same,glycan array binding signal (z-score),[17],-0.076
same,glycan array binding signal (z-score),[18],0.983
same,glycan array binding signal (z-score),Gal(b1-3)GalNAc,0.276
same,glycan array binding signal (z-score),Gal(b1-3)Gal,0.729
same,glycan array binding signal (z-score),[19],-0.292
same,glycan array binding signal (z-score),[20],-0.889
same,glycan array binding signal (z-score),[21],0.432
same,glycan array binding signal (z-score),[22],-0.217
same,glycan array binding signal (z-score),[23],0.593
same,glycan array binding signal (z-score),[24],1.4
same,glycan array binding signal (z-score),[25],-0.652
same,glycan array binding signal (z-score),[26],-1
same,glycan array binding signal (z-score),[27],0.348
same,glycan array binding signal (z-score),[28],-0.658
same,glycan array binding signal (z-score),[29],-0.476
same,glycan array binding signal (z-score),[30],0.041
same,glycan array binding signal (z-score),[31],-1.07
same,glycan array binding signal (z-score),[32],-0.947
same,glycan array binding signal (z-score),Gal(b1-3)GlcNAc6S,-0.27
same,glycan array binding signal (z-score),Gal(b1-3)GlcNAc,0.026
same,glycan array binding signal (z-score),[33],-0.493
same,glycan array binding signal (z-score),[34],0.438
same,glycan array binding signal (z-score),[35],1.14
same,glycan array binding signal (z-score),[36],1.93

# Part of the list above, tab-delimited.
substance	measurement	setting	value
Wza (Escherichia coli), P0A930	glycan array binding signal (z-score)	[9]	-0.948
same	glycan array binding signal (z-score)	[10]	-1.07
same	glycan array binding signal (z-score)	[11]	0.557
